The record followed here is patent US20250108135A1, “TERAGNOSTIC METHOD FOR CANCER PATIENTS” (priority 2022, published 2025).

The structures appear in SMILES notation. No dose or concentration is given here for some results.

This data set concerns cancer lesion. Nature of the data set: 64CuCl2 PET/CT in the selection step: lesion uptake and target to background ratio (TBR). In kind it is in vivo, human. The settings on record: PET/CT of selection step; phase I trials, 16 glioblastoma and 16 prostate cancer patients.

On to `[Cl][Cu][Cl]` [^64CuCl2, Copper Chloride], for which the “TBR in non-responder patients” value is above 25.
